These results are taken from publication PMC7819943, “Rice protein-binding microarrays: a tool to detect cis-acting elements near promoter regions in rice”.

The chains behind the UniProt entries cited, without tags or fusion partners.
UniProt Q0JBA9, entry or part of it: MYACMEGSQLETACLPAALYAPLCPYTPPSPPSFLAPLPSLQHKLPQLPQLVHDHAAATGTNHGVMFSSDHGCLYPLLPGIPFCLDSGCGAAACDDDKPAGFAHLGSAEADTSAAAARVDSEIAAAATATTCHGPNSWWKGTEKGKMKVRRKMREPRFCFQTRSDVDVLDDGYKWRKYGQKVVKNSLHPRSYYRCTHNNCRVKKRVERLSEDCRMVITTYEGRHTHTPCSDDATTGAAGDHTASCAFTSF

Some of the results follow.

The target in this test is OsWRKY34 (Oryza sativa, UniProt Q0JBA9 1-250). Put plainly: protein-binding microarray (RPBM); PBS, 2% BSA, 51.3 ng/ul salmon testes DNA, 50 uM zinc acetate, 200 nM TF, 25 C, 1 h; high values mean tight binding. The settings on record: protein: recombinant; tags: N-terminal polyhistidine and DsRed monomer fusion (pET32a); label: CyDye5-dUTP incorporated in the synthesized complementary strand; 3' TTTTT single-stranded linker to array surface; dsDNA, one strand shown. The gist of the method:
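Polyhistidine-tagged DsRed fusions of transcription factors, joined at the N-terminus, were expressed in E. coli BL21-CodonPlus and isolated on Ni–NTA. They were incubated at 200 nM for 1 h at 25 °C on a custom Agilent array, double-stranded and BSA-blocked, in PBS with 2% BSA, salmon testes DNA and 50 µM zinc acetate. The binding signal is per-feature fluorescence intensity (arbitrary units) read on an Axon 4000B scanner after washing.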
As for “GAGGGTGGTGTTAGGTGAAACAAATGGCAATATTATGTGGCGGAGTCACCTAGTGCAG”, the binding signal was 8300 fluorescence intensity (a.u.).
As for “ACCTAACAACTGTACTGCCCGGCTGCCAACTTCCATTCTCCGGAGTCACCTAGTGCAG”, the binding signal was 8320 fluorescence intensity (a.u.).
With “TGGCTCTCTCTTGATGCACCACACAACATTTATTTGACTGCGGAGTCACCTAGTGCAG” the figure was 8530 fluorescence intensity (a.u.).
Then “ATGGCGTATTTGCTATGTTGCCTCTTTAAATTTCGACAATCGGAGTCACCTAGTGCAG”, with 9000 fluorescence intensity (a.u.).
With “AACCCATTACATAGCTGCAAGAAACCCAATCTTTCTTTACCGGAGTCACCTAGTGCAG” the figure was 8420 fluorescence intensity (a.u.).
In the case of “ATCTCTCTCTGTCTCGGCCTCTCCTGTTCTGGTCCAATCACGGAGTCACCTAGTGCAG”, the binding signal was 16300 fluorescence intensity (a.u.).
With “TGGTTCCGTTTGACGGTTTCGGAAGCCCCGGTCCATGTTTCGGAGTCACCTAGTGCAG” the figure was 8480 fluorescence intensity (a.u.); with “TTCACTTTGCCCCGATCCGCACCCAAACCCTAGCCATCTACGGAGTCACCTAGTGCAG”, 8980 fluorescence intensity (a.u.); with “ATGCCATATGCCAGTACGGATCTTTTTGTGTCTGTTAGACCGGAGTCACCTAGTGCAG”, 8400 fluorescence intensity (a.u.).
Then “TTGATGTGTGCCGTTCTTTATTACTACGTGTTAGAAGTTACGGAGTCACCTAGTGCAG”, with 11600 fluorescence intensity (a.u.).
With “GTTACATAATTCTCCTTGTTTAAGTCCATATAATGTTTCTCGGAGTCACCTAGTGCAG” the figure was 8220 fluorescence intensity (a.u.).
Turning to “TATGGCCAACCTGCCCTACTCCTGTCTCTGTCCCTGTCATCGGAGTCACCTAGTGCAG”, the binding signal is 11100 fluorescence intensity (a.u.).
In the case of “CGTCGTCGTCGTCGTTCGTCCCAATCTCCGCATCCCTCCACGGAGTCACCTAGTGCAG”, the binding signal was 10200 fluorescence intensity (a.u.).
Take “TTGGTTGGGTGGTATATTTGTGGTGGTGGAGGCGGTCAGCCGGAGTCACCTAGTGCAG”: the binding signal was 8300 fluorescence intensity (a.u.).
Then “CCAAGCACTACTACTCATCACTAGCTCACACACAATTGCACGGAGTCACCTAGTGCAG”, with 9500 fluorescence intensity (a.u.); and “ATACTGTCATCAATTGATTACTCTGACCGTCGATCACACACGGAGTCACCTAGTGCAG”, with 8280 fluorescence intensity (a.u.); and “GGAAACACCAAAATGGTCTATACTGTCTGTCAACACACTTCGGAGTCACCTAGTGCAG”, with 9070 fluorescence intensity (a.u.).
Take “CAATTATTCTCTCCTCCCCACTTGTTGACCAAAGCCCATCCGGAGTCACCTAGTGCAG”: the binding signal is 9450 fluorescence intensity (a.u.).
On to “CCCCTTCGTTGAGTCATCGCCACACCTCCTTCCCGCTTTGCGGAGTCACCTAGTGCAG”, for which the binding signal was 8100 fluorescence intensity (a.u.).
With “GTCATCGGTGAGCCATCCAGCTACAGCCCGTCACAGGTATCGGAGTCACCTAGTGCAG” the figure was 9910 fluorescence intensity (a.u.); with “CCGTCGGCCCCATTATATGTGCCATTTGTACGTTTCTATTCGGAGTCACCTAGTGCAG”, 8900 fluorescence intensity (a.u.).
For “GGTGAGCTCTCTTTAATGCATATACACAGCAGCCTATTGCCGGAGTCACCTAGTGCAG”, the binding signal is 8440 fluorescence intensity (a.u.).
With “TCATCTCTGCCTCTAGATTTGGACCCAAATACCGCGACTTCGGAGTCACCTAGTGCAG” the figure was 10800 fluorescence intensity (a.u.); with “CAGGGTTGCGTGGAGGGTGAAGGGGATCATTCAGGTGAGACGGAGTCACCTAGTGCAG”, 8140 fluorescence intensity (a.u.).
With “AACAATCACCTAGGCTAAATGTTACTTCCTCCGTTTCACACGGAGTCACCTAGTGCAG” the figure was 9190 fluorescence intensity (a.u.).
With “ATACGTTGTAGCTTGTTGTTGTCGCGAGGACGCACACGCGCGGAGTCACCTAGTGCAG” the figure was 8450 fluorescence intensity (a.u.); with “TCGTTTATGGATTTAACCACGGTTTCTTGTATTTGTTTCTCGGAGTCACCTAGTGCAG”, 11400 fluorescence intensity (a.u.).
In the case of “ATGTACTATGTATTCTCCAGCTGCCGTACTGTGCACGGATCGGAGTCACCTAGTGCAG”, the binding signal is 8290 fluorescence intensity (a.u.).
With “GCACACCACAGTACTATTCAACAACATTACTTTTTTGCCTCGGAGTCACCTAGTGCAG” the figure was 11300 fluorescence intensity (a.u.); with “TGTCGAGAGGCAGGGTTGTACCGAGGTCGTAGGTTTTTCTCGGAGTCACCTAGTGCAG”, 9260 fluorescence intensity (a.u.).
For “GTCAGTCAACACCCTGCAACTGTTGTCGCTCAAAAAACCGCGGAGTCACCTAGTGCAG”, the binding signal was 8380 fluorescence intensity (a.u.).
“ACTCCGCTATAAAAATTTCTCTCCCCGCACTCTCTACGCGCGGAGTCACCTAGTGCAG”: the binding signal was 8550 fluorescence intensity (a.u.).
Then “CCTTTCTTTTCTCTTTATCTTTATCTTTATCTTTATCCTTCGGAGTCACCTAGTGCAG”, with 13200 fluorescence intensity (a.u.); and “TAATAGTAGTTTAGCATGTGTTGTTTCCTCATGTTCGTCACGGAGTCACCTAGTGCAG”, with 10800 fluorescence intensity (a.u.).
Then “AGCCACCCGCCACCCGCCGCCGCTCGCCGCCCGCCGCCGACGGAGTCACCTAGTGCAG”, with 9260 fluorescence intensity (a.u.).
Then “CACAATATTCCCTTCCACGCCACCAACTTTTCCACCCTTCCGGAGTCACCTAGTGCAG”, with 8460 fluorescence intensity (a.u.); and “GGGTATTGAGTTTGATTATTGTTGTTGCCATGCTTCATTTCGGAGTCACCTAGTGCAG”, with 9430 fluorescence intensity (a.u.); and “AAACCCAAGCCTCCATCCATCCATCCATTCATCAGAGCTCCGGAGTCACCTAGTGCAG”, with 8550 fluorescence intensity (a.u.).
For the sequence “AGGGGCATAACATACCTTGTTTCTTCTTGTCTCATCTGCACGGAGTCACCTAGTGCAG”, the binding signal was 13600 fluorescence intensity (a.u.).
As to “TTGGTACGTTCCCCAAACTGTAAGCCATCACCCCAAAATACGGAGTCACCTAGTGCAG”, the binding signal is 8070 fluorescence intensity (a.u.).
As for “GAGGTGGTGGAGGAGGAGGCCAGGGGTTCGTTGGCGGCGGCGGAGTCACCTAGTGCAG”, the binding signal was 8840 fluorescence intensity (a.u.).
With “GCGATCACCCGCCTATTAGCATTAGCATTCTCGGCGATCACGGAGTCACCTAGTGCAG” the figure was 12200 fluorescence intensity (a.u.).
